One molecule from article PMC8599684 can be followed below.

By UniProt entry, the sequences of proteins in these tests, tags left out.
UniProt Q99728: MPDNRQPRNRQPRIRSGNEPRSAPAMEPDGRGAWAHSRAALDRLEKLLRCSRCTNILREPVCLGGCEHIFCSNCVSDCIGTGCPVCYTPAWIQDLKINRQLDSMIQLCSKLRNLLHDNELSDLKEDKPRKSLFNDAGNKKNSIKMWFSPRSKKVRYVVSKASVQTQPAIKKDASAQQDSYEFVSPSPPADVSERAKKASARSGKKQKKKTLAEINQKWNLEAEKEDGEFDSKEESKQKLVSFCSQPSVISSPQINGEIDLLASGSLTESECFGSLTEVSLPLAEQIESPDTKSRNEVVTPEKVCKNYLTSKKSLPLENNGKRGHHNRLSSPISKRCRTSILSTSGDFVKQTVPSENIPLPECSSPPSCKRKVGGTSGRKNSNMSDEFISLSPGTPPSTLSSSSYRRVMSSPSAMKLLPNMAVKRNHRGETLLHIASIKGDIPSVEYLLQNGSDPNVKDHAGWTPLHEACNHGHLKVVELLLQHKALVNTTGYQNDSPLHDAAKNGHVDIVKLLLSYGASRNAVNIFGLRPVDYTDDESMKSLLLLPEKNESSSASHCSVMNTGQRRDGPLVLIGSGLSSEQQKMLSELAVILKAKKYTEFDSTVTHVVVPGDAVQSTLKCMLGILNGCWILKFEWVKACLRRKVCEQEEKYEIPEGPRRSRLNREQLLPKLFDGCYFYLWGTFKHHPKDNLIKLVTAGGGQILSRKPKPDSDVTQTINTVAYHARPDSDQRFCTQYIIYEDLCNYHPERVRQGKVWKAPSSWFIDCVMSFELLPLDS

In this test the target is Flag-BARD1 (WT) (UniProt Q99728). Briefly: co-IP; HEK293T transfected with Vec, WT or deletion mutants of Flag-BARD1 together with GFP-RNF19A; Flag beads; immunoblot.

No constants are given. Whether binding was seen depends on the method and setting. In cells and extracts the contact can be indirect. Some results given as binding are weak or reduced against the parent protein; the word gives no strength. Tags and fused reporters may be left off the sequences shown.

B1: GFP-RNF19A (enzyme, UniProt Q9NV58 1-838)
chain: MQEQEIGFISKYNEGLCVNTDPVSILTSILDMSLHRQMGSDRDLQSSASSVSLPSVKKAPKKRRISIGSLFRRKKDNKRKSRELNGGVDGIASIESIHSEMCTDKNSIFSTNTSSDNGLTSISKQIGDFIECPLCLLRHSKDRFPDIMTCHHRSCVDCLRQYLRIEISESRVNISCPECTERFNPHDIRLILSDDVLMEKYEEFMLRRWLVADPDCRWCPAPDCGYAVIAFGCASCPKLTCGREGCGTEFCYHCKQIWHPNQTCDAARQERAQSLRLRTIRSSSISYSQESGAAADDIKPCPRCAAYIIKMNDGSCNHMTCAVCGCEFCWLCMKEISDLHYLSPSGCTFWGKKPWSRKKKILWQLGTLVGAPVGIALIAGIAIPAMIIGIPVYVGRKIHNRYEGKDVSKHKRNLAIAGGVTLSVIVSPVVAAVTVGIGVPIMLAYVYGVVPISLCRSGGCGVSAGNGKGVRIEFDDENDINVGGTNTAVDTTSVAEARHNPSIGEGSVGGLTGSLSASGSHMDRIGAIRDNLSETASTMALAGASITGSLSGSAMVNCFNRLEVQADVQKERYSLSGESGTVSLGTVSDNASTKAMAGSILNSYIPLDKEGNSMEVQVDIESKPSKFRHNSGSSSVDDGSATRSHAGGSSSGLPEGKSSATKWSKEATAGKKSKSGKLRKKGNMKINETREDMDAQLLEQQSTNSSEFEAPSLSDSMPSVADSHSSHFSEFSCSDLESMKTSCSHGSSDYHTRFATVNILPEVENDRLENSPHQCSISVVTQTASCSEVSQLNHIAEEHGNNGIKPNVDLYFGDALKETNNNHSHQTMELKVAIQTEI
Take B1: the binding result was “binds”.
